Values from PubChem BioAssay AID1259425 (University of Nebraska Medical Center, 2018)

Screen: 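Compare each knockdown with KSR1 silencing using changes in marker transcripts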 (primary screen)
Cell system: HCT116 human colon cancer cells
Reagent: siRNA pool against human genes, 50 nM siRNA
Measurement: 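mRNA of six signature genes measured together by branched-DNA assay after 50 nM siRNA pool, blank removed, divided by geometric mean of two housekeeping genes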
Direction: BNIP3L mRNA: higher = more BNIP3L transcript after knockdown
The deposit covers about 14,000 reagents; below is a random part of them. Not all columns of the deposit are shown. Not stated in the record: the time to read-out.

| gene knocked down | BNIP3L mRNA, set 1 |
| --- | --- |
| MAPKBP1 (mitogen-activated protein kinase binding protein 1) | 0.0638 |
| TRMT13 (tRNA methyltransferase 13) | 0.145 |
| BAK1 (BCL2 antagonist/killer 1) | 0.18 |
| LRAT (lecithin retinol acyltransferase) | 0.0741 |
| GIMAP4 (GTPase, IMAP family member 4) | 0.143 |
| MT2A (metallothionein 2A) | 0.145 |
| CA2 (carbonic anhydrase 2) | 0.115 |
| ALKBH5 (alkB homolog 5, RNA demethylase) | 0.188 |
| CNTF (ciliary neurotrophic factor) | 0.131 |
| BLM (BLM RecQ like helicase) | 0.0495 |
| FOSL1 (FOS like 1, AP-1 transcription factor subunit) | 0.0507 |
| NDUFAF1 (NADH:ubiquinone oxidoreductase complex assembly factor 1) | 0.0789 |
| PTPRS (protein tyrosine phosphatase receptor type S) | 0.118 |
| RALGAPA2 (Ral GTPase activating protein catalytic subunit alpha 2) | 0.166 |
| BMP7 (bone morphogenetic protein 7) | 0.107 |
| TNFRSF10C (TNF receptor superfamily member 10c) | 0.0955 |
| PLEK (pleckstrin) | 0.128 |
| G6PC2 (glucose-6-phosphatase catalytic subunit 2) | 0.0632 |
| NACA (nascent polypeptide associated complex subunit alpha) | 0.207 |
| CDHR2 (cadherin related family member 2) | 0.144 |
| HORMAD1 (HORMA domain containing 1) | 0.324 |
| NUDT5 (nudix hydrolase 5) | 0.14 |
| EIF3C (eukaryotic translation initiation factor 3 subunit C) | 0.0559 |
| BBS4 (Bardet-Biedl syndrome 4) | 0.0852 |
| NUP42 (nucleoporin 42) | 0.155 |
| GSDMC (gasdermin C) | 0.177 |
| PCDH12 (protocadherin 12) | 0.0736 |
| L3MBTL2 (L3MBTL histone methyl-lysine binding protein 2) | 0.187 |
| NPHS2 (NPHS2 stomatin family member, podocin) | 0.118 |
| SCO2 (synthesis of cytochrome C oxidase 2) | 0.137 |
| RPL12 (ribosomal protein L12) | 0.139 |
| TMEM45A (transmembrane protein 45A) | 0.0727 |
| PHRF1 (PHD and ring finger domains 1) | 0.0779 |
| KDELR1 (KDEL endoplasmic reticulum protein retention receptor 1) | 0.195 |
| CLDN12 (claudin 12) | 0.0972 |
| LGR4 (leucine rich repeat containing G protein-coupled receptor 4) | 0.224 |
| LAIR1 (leukocyte associated immunoglobulin like receptor 1) | 0.0905 |
| MRPL20 (mitochondrial ribosomal protein L20) | 0.164 |
| TRAF3IP3 (TRAF3 interacting protein 3) | 0.16 |
| FSCN1 (fascin actin-bundling protein 1) | 0.195 |
| COX7A1 (cytochrome c oxidase subunit 7A1) | 0.163 |
| ARHGEF38 (Rho guanine nucleotide exchange factor 38) | 0.0465 |
| RPS5 (ribosomal protein S5) | 0.0358 |
| TMEM176B (transmembrane protein 176B) | 0.161 |
| TMEM70 (transmembrane protein 70) | 0.113 |
| PGRMC2 (progesterone receptor membrane component 2) | 0.0605 |
| RNF216 (ring finger protein 216) | 0.067 |
| UTP14C (UTP14C small subunit processome component) | 0.096 |
| AKR1C2 (aldo-keto reductase family 1 member C2) | 0.0695 |
| PELO (pelota mRNA surveillance and ribosome rescue factor) | 0.129 |
